No constants are given. Whether binding was seen depends on the method and setting. Some entries that bind do so weakly or less than the wild type.
T1: Rat PD-1
T1 sequence: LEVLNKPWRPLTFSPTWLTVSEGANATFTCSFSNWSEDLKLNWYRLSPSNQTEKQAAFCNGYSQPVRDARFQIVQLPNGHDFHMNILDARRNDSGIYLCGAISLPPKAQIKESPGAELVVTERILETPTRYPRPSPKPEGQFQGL

Sequences of proteins named here, by UniProt entry; tags and fusion partners are left off. A change or cut given only in a name is not applied to a line headed by its entry.
UniProt Q15116: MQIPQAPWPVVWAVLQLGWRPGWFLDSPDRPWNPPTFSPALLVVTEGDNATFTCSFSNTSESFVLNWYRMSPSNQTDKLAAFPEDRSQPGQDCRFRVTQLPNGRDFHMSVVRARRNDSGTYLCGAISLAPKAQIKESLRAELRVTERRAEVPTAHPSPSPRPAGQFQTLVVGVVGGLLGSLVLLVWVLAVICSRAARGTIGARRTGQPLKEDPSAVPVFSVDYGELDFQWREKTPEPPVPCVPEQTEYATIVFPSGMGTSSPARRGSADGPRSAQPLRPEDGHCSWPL


Key:
human PD-1 protein [1] = target: T2, human PD-1 protein (human, UniProt Q15116 25-167, limits assumed); assay: protein-based ELISA, hybridoma screening
T2 construct: also called human PD-1 antigen

human PD-1 protein [2] = target: T2, human PD-1 protein; assay: protein-based ELISA, coated human PD-1, hybridoma supernatant
human PD-1 protein [3] = target: T2, human PD-1 protein; assay: co-crystallisation, X-ray crystallography
Rat PD-1 = target: T1, Rat PD-1; assay: protein-based ELISA, coated PD-1 ECD
[4] = target: extracellular domain (ECD) PD-1 protein from cynomolgus (cynomolgus) (UniProt B0LAJ3); assay: protein-based ELISA, 10 ng coated PD-1 ECD, antibody at 1 ug/ml
[5] = target: extracellular domain (ECD) PD-1 protein from cynomolgus (cynomolgus) (UniProt B0LAJ3); assay: protein-based ELISA, coated PD-1 ECD, antibody at 1 ug/ml
human PD-1 protein [6] = target: T2, human PD-1 protein; assay: SPR (Biacore 8K), antibody captured on Protein A chip, human PD-1 as analyte
human PD-1 protein [7] = target: T2, human PD-1 protein; assay: SPR, Biacore 8K
human PD-1 protein [8] = target: T2, human PD-1 protein; assay: SPR (Biacore 8K), pH 6.0, antibody captured on Protein A chip, human PD-1 as analyte
human PD-1 protein [9] = target: T2, human PD-1 protein; assay: SPR (Biacore 8K), pH 7.4, antibody captured on Protein A chip, human PD-1 as analyte
human PD-1 protein [10] = target: T2, human PD-1 protein; assay: SPR (Biacore 8K), pH 7.4, antibody (10 ug/ml) captured on Protein A chip, hPD1-His as analyte, 1:1 binding fit
human PD-1 protein [11] = target: T2, human PD-1 protein; assay: SPR (Biacore 8K), pH 6.0 (HBS-EP+), antibody (10 ug/ml) captured on Protein A chip, hPD1-His as analyte, 1:1 binding fit

| Binder | binding (human PD-1 protein [1]) | binding (human PD-1 protein [2]) | binding (human PD-1 protein [3]) | binding [4] | binding [5] | binding (human PD-1 protein [6]) | binding (human PD-1 protein [7]) | binding (human PD-1 protein [8]) | binding (human PD-1 protein [9]) | binding (human PD-1 protein [10]) | binding (human PD-1 protein [11]) | binding (Rat PD-1) |
| --- | --- | --- | --- | --- | --- | --- | --- | --- | --- | --- | --- | --- |
| 1G1-h70 antibody Fab (Fab, V domains shown) VH: QVQLVQSGAEVKKPGASVKVSCKASGYTFTGYWMHWVRQAPGQGLEWIGMIHPNSDTTTYNEKFKNRVTMTRDTSISTAYMELSRLRSDDTAVYYCAGTDQAAWFAFWGQGTTVTVSS VL: DIVMTQTPLSLSVTPGQPASISCRSSQNIVHSQGDTYLEWYLQKPGQSPQLLIYKVSKRFSGVPDRFSGSGSGTDFTLKISRVEAEDVGVYYCFQGSHVPWTFGGGTKVEIK |  |  | binds |  |  |  |  |  |  |  |  |  |
| humanized antibody 1G1-h68 (antibody, human IgG4, kappa, V domains shown, hIgG4 heavy chain, human kappa light chain) VH: QVQLVQSGAEVKKPGASVKVSCKASGYTFTGYWMHWVRQAPGQGLEWIGMIHPNSDTTTYNEKFKNRVTMTRDTSISTAYMELSRLRSDDTAVYYCTGTDQAAWFAFWGQGTTVTVSS VL: DIVMTQTPLSLSVTPGQPASISCRSSQNIVHSNGDTYLEWYLQKPGQSPQLLIYKVSKRFSGVPDRFSGSGSGTDFTLKISRVEAEDVGVYYCFQGSHVPWTFGGGTKVEIKR |  |  |  | binds | binds | binds | binds |  |  |  |  | no binding (tested: 1 ug/ml (single concentration)) |

Now from value to binder, other results behind:

| binding (human PD-1 protein [1]) | binding (human PD-1 protein [2]) | binding (human PD-1 protein [3]) | binding [4] | binding [5] | binding (human PD-1 protein [6]) | binding (human PD-1 protein [7]) | binding (human PD-1 protein [8]) | binding (human PD-1 protein [9]) | binding (human PD-1 protein [10]) | binding (human PD-1 protein [11]) | Binder | binding (Rat PD-1) |
| --- | --- | --- | --- | --- | --- | --- | --- | --- | --- | --- | --- | --- |
| binds | binds |  |  |  |  |  |  |  |  |  | hybridoma 1G1 antibody (antibody, V domains shown, Mouse antibody from the hybridoma, used as culture supernatant or Protein G purified; IgG1 reverse primer used for VH); also called 1G1 hybridoma antibody; monoclonal cell (hybridoma) 1G1 antibody) VH: EVQLQQSGAELVKPGASVKLSCKASGYTFTGYWMHWVKQRPGQGLEWIGMIHPNSDTTTYNEKFKNRATLTVDKSSGTAYMQLSSLTSEDSAVYYCTGTDQAAWFAFWGQGTLVTVSA VL: DIVLTQTPLSLPVSLGDQASISCRSSQNIVHSNGDTYLEWYLQKPGQSPKLLIYKVSKRFSGVPDRFSGSGSGTDFTLKISRVEAEDLGVYYCFQGSHVPWTFGGGTKLEIK |  |
|  |  |  | binds | binds | binds |  |  |  |  |  | chimeric 1G1 antibody (antibody, human IgG4 S228P, kappa, V domains shown, signal peptide not part of the entries; also called 1G1 chimeric; 1G1-chimeric) VH: EVQLQQSGAELVKPGASVKLSCKASGYTFTGYWMHWVKQRPGQGLEWIGMIHPNSDTTTYNEKFKNRATLTVDKSSGTAYMQLSSLTSEDSAVYYCTGTDQAAWFAFWGQGTLVTVSA VL: DIVLTQTPLSLPVSLGDQASISCRSSQNIVHSNGDTYLEWYLQKPGQSPKLLIYKVSKRFSGVPDRFSGSGSGTDFTLKISRVEAEDLGVYYCFQGSHVPWTFGGGTKLEIKR | no binding (tested: 1 ug/ml (single concentration)) |
|  |  |  | binds | binds | binds | binds |  |  |  |  | humanized antibody 1G1-h61 (antibody, human IgG4, kappa, V domains shown, hIgG4 heavy chain, human kappa light chain) VH: QVQLVQSGAEVKKPGASVKVSCKASGYTFTGYWMHWVRQAPGQGLEWMGMIHPNSDTTTYNEKFKNRVTMTRDTSISTAYMELSRLRSDDTAVYYCAGTDQAAWFAFWGQGTTVTVSS VL: DIVMTQTPLSLSVTPGQPASISCRSSQNIVHSNGDTYLEWYLQKPGQSPKLLIYKVSKRFSGVPDRFSGSGSGTDFTLKISRVEAEDVGVYYCFQGSHVPWTFGGGTKVEIKR | no binding (tested: 1 ug/ml (single concentration)) |
|  |  |  | binds | binds | binds | binds | binds | binds | binds | binds | humanized antibody 1G1-h70 (antibody, V domains shown, hIgG4 heavy chain, human kappa light chain; also called 1G1-h70 parent antibody (WT); U299-WTI) VH: QVQLVQSGAEVKKPGASVKVSCKASGYTFTGYWMHWVRQAPGQGLEWIGMIHPNSDTTTYNEKFKNRVTMTRDTSISTAYMELSRLRSDDTAVYYCAGTDQAAWFAFWGQGTTVTVSS VL: DIVMTQTPLSLSVTPGQPASISCRSSQNIVHSQGDTYLEWYLQKPGQSPQLLIYKVSKRFSGVPDRFSGSGSGTDFTLKISRVEAEDVGVYYCFQGSHVPWTFGGGTKVEIKR | no binding (tested: 1 ug/ml (single concentration)) |

— US20240034796A1 (GENUV, published 2024)
